This assay has as its system BDF1 mice, s.c. Lewis lung carcinoma, T/C %. The experiment in a line: NCI In Vivo Anticancer Drug Screen. Data for tumor model Lewis Lung Carcinoma (subcutaneous) in B6D2F1 (BDF1) mice. As to the method:
The antitumor activity of compounds was measured in mice bearing transplantable tumors. Survival or tumor size were measured and the results are expressed as the measurement made in the treated group (T) divided by the measurement made in the vehicle treated control group (C). The tumor model used in this assay is Lewis Lung Carcinoma (subcutaneous) in B6D2F1 (BDF1) mice

The mark [1] stands for this setting: T/C endpoint: mean tumor weight, dose: 3.0 mg/kg/injection, schedule: Q01DX011 (ip), vehicle: other, evaluation day not shown, higher T/C = larger tumour.
Setting [2] is: T/C endpoint: mean tumor weight, dose: 6.0 mg/kg/injection, schedule: Q01DX011 (ip), vehicle: other, evaluation day not shown, higher T/C = larger tumour.

The list shows only some results of the screen, not a fair sample: its compounds were picked by chemical class. Not every dose and run of a compound is shown. T/C: endpoint of the treated group in % of that of the vehicle group. Some entries show no survivor count and are marked so; the dose need not have been tolerated. Schedules are NCI's codes, read here as Q, the interval in days (D) or hours (H), X, the number of doses. Some doses have a count of surviving animals in place of a T/C: the source files T/C as zero there, which appears to mark a toxic dose or a test without result, not a measured value. Counts of survivors are from the toxicity check (mostly the fifth day) where no day follows; animals may have died later. Some entries were tested several times; the results are listed from low to high. Where survival is the endpoint, the PubChem record calls one and a half times the control and up active, and a quarter to a half above the control has no call in these data; cut-offs in other NCI protocols can differ. Some T/C values carry the count of animals alive at the toxicity check (mostly the fifth day); where neither a count nor a note follows, no animal had died by that day.

Consider `O=C(O)C(=O)Cc1ccc(N(CCCl)CCCl)cc1`, for which the T/C under setting [1] is 86 % of control [survivor count not shown]; the T/C under setting [2] is 52 % of control [survivor count not shown]; the T/C (T/C endpoint: mean tumor weight, dose: 12.0 mg/kg/injection, schedule: Q01DX011 (ip), vehicle: other, evaluation day not shown, higher T/C = larger tumour) was 32 % of control [survivor count not shown].

Regarding `O[C@@H](CNCCCl)[C@@H](O)CNCCCl`, the T/C is 63 % of control [survivor count not shown] (T/C endpoint: mean tumor weight, dose: 0.3 mg/kg/injection, schedule: Q01DX011 (ip), vehicle: water, evaluation day not shown, higher T/C = larger tumour); 78 % of control [survivor count not shown] (T/C endpoint: mean tumor weight, dose: 0.6 mg/kg/injection, schedule: Q01DX011 (ip), vehicle: water, evaluation day not shown, higher T/C = larger tumour); 121 % of control [survivor count not shown] (T/C endpoint: mean tumor weight, dose: 1.2 mg/kg/injection, schedule: Q01DX011 (ip), vehicle: water, evaluation day not shown, higher T/C = larger tumour); 53 % of control [survivor count not shown] (T/C endpoint: mean tumor weight, dose: 2.5 mg/kg/injection, schedule: Q01DX011 (ip), vehicle: saline, evaluation day not shown, higher T/C = larger tumour); 79 % of control [survivor count not shown] (T/C endpoint: mean tumor weight, dose: 2.5 mg/kg/injection, schedule: Q01DX011 (ip), vehicle: water, evaluation day not shown, higher T/C = larger tumour); 44 % of control [survivor count not shown] (T/C endpoint: mean tumor weight, dose: 5.0 mg/kg/injection, schedule: Q01DX011 (ip), vehicle: saline, evaluation day not shown, higher T/C = larger tumour). The T/C (T/C endpoint: mean tumor weight, dose: 10.0 mg/kg/injection, schedule: Q01DX011 (ip), vehicle: saline, evaluation day not shown, higher T/C = larger tumour) is 11 % of control [survivor count not shown].

Turning to `NC1CCCCC1.NP(=O)(O)N(CCCl)CCCl`, the T/C is 108 % of control (T/C endpoint: median survival time, dose: 50.0 mg/kg/injection, schedule: Q01DX001 (ip), vehicle: water, evaluated on day 49, higher T/C = longer survival); 109 % of control (T/C endpoint: median survival time, dose: 50.0 mg/kg/injection, schedule: Q01DX001 (ip), vehicle: water, evaluated on day 60, higher T/C = longer survival); 137 % of control (T/C endpoint: median survival time, dose: 100.0 mg/kg/injection, schedule: Q01DX001 (ip), vehicle: water, evaluated on day 49, higher T/C = longer survival); 138 % of control (T/C endpoint: median survival time, dose: 100.0 mg/kg/injection, schedule: Q01DX001 (ip), vehicle: water, evaluated on day 60, higher T/C = longer survival); 145 % of control [7 of 10 alive on day 49] (T/C endpoint: median survival time, dose: 200.0 mg/kg/injection, schedule: Q01DX001 (ip), vehicle: water, evaluated on day 49, higher T/C = longer survival); 154 % of control (T/C endpoint: median survival time, dose: 200.0 mg/kg/injection, schedule: Q01DX001 (ip), vehicle: water, evaluated on day 60, higher T/C = longer survival). The survivor count runs as follows: (T/C endpoint: median survival time, dose: 400.0 mg/kg/injection, schedule: Q01DX001 (ip), vehicle: water, higher T/C = longer survival) 0 of 10 on day 49 and 3 of 10; (T/C endpoint: median survival time, dose: 800.0 mg/kg/injection, schedule: Q01DX001 (ip), vehicle: water, higher T/C = longer survival) 0 of 10 and 0 of 10 on day 49.

Consider `ClCCN1CCN(CCCl)CC1`, for which the T/C is, setting by setting: (T/C endpoint: median survival time, dose: 0.06 mg/kg/injection, schedule: Q01DX009 (ip), vehicle: saline, higher T/C = longer survival) 103 % of control [survivor count not shown]; (T/C endpoint: median survival time, dose: 0.12 mg/kg/injection, schedule: Q01DX009 (ip), vehicle: saline, higher T/C = longer survival) 105 % of control [survivor count not shown]; (T/C endpoint: median survival time, dose: 0.25 mg/kg/injection, schedule: Q01DX009 (ip), vehicle: saline, higher T/C = longer survival) 103 % of control [survivor count not shown]; (T/C endpoint: median survival time, dose: 7.5 micrograms/kg/injection, schedule: Q01DX009 (ip), vehicle: saline, higher T/C = longer survival) 95 % of control [survivor count not shown]; (T/C endpoint: median survival time, dose: 15.0 micrograms/kg/injection, schedule: Q01DX009 (ip), vehicle: saline, higher T/C = longer survival) 102 % of control [survivor count not shown]; (T/C endpoint: median survival time, dose: 30.0 micrograms/kg/injection, schedule: Q01DX009 (ip), vehicle: saline, higher T/C = longer survival) 110 % of control [survivor count not shown]. The T/C (T/C endpoint: median survival time, dose: 60.0 micrograms/kg/injection, schedule: Q01DX009 (ip), vehicle: saline, higher T/C = longer survival) is 97 % of control [survivor count not shown].

As to `COc1ccc(C(=O)O)cc1N(CCCl)CCCl`, the T/C by setting is: (T/C endpoint: median survival time, dose: 0.06 mg/kg/injection, schedule: Q01DX009 (ip), vehicle: Klucel (hydroxypropylcellulose) (HPC), higher T/C = longer survival) 96 % of control [survivor count not shown]; (T/C endpoint: median survival time, dose: 0.12 mg/kg/injection, schedule: Q01DX009 (ip), vehicle: Klucel (hydroxypropylcellulose) (HPC), higher T/C = longer survival) 109 % of control [survivor count not shown]; (T/C endpoint: median survival time, dose: 0.25 mg/kg/injection, schedule: Q01DX009 (ip), vehicle: Klucel (hydroxypropylcellulose) (HPC), higher T/C = longer survival) 100 % of control [survivor count not shown]; (T/C endpoint: median survival time, dose: 0.5 mg/kg/injection, schedule: Q01DX009 (ip), vehicle: Klucel (hydroxypropylcellulose) (HPC), higher T/C = longer survival) 89 % of control [survivor count not shown]; (T/C endpoint: median survival time, dose: 1.0 mg/kg/injection, schedule: Q01DX009 (ip), vehicle: Klucel (hydroxypropylcellulose) (HPC), higher T/C = longer survival) 110 % of control [survivor count not shown]; (T/C endpoint: median survival time, dose: 2.0 mg/kg/injection, schedule: Q01DX009 (ip), vehicle: Klucel (hydroxypropylcellulose) (HPC), higher T/C = longer survival) 103 % of control [survivor count not shown]. Also, the T/C (T/C endpoint: median survival time, dose: 4.0 mg/kg/injection, schedule: Q01DX009 (ip), vehicle: Klucel (hydroxypropylcellulose) (HPC), higher T/C = longer survival) was 100 % of control [survivor count not shown].

As for `COc1cc(CN(CCCl)CCBr)cc(OC)c1`, the T/C reads like this: (T/C endpoint: median survival time, dose: 0.75 mg/kg/injection, schedule: Q01DX009 (ip), vehicle: saline, higher T/C = longer survival) 125 % of control [survivor count not shown]; (T/C endpoint: median survival time, dose: 1.5 mg/kg/injection, schedule: Q01DX009 (ip), vehicle: saline, higher T/C = longer survival) 96 % of control [survivor count not shown]; (T/C endpoint: median survival time, dose: 3.0 mg/kg/injection, schedule: Q01DX009 (ip), vehicle: saline, higher T/C = longer survival) 124 % of control [survivor count not shown]; (T/C endpoint: median survival time, dose: 6.0 mg/kg/injection, schedule: Q01DX009 (ip), vehicle: saline, higher T/C = longer survival) 107 % of control [survivor count not shown].

For `COc1cccc(N(CCCl)CCCl)c1OC`, the T/C (T/C endpoint: mean tumor weight, dose: 7.5 mg/kg/injection, schedule: Q01DX011 (ip), vehicle: saline, evaluation day not shown, higher T/C = larger tumour) is 61 % of control [survivor count not shown]; the T/C (T/C endpoint: mean tumor weight, dose: 15.0 mg/kg/injection, schedule: Q01DX011 (ip), vehicle: saline, evaluation day not shown, higher T/C = larger tumour) is 70 % of control [survivor count not shown]; the T/C (T/C endpoint: mean tumor weight, dose: 60.0 mg/kg/injection, schedule: Q01DX011 (ip), vehicle: saline, evaluation day not shown, higher T/C = larger tumour) is 47 % of control [survivor count not shown].

For the compound `CC1(C)NC(=O)N(CCN(CCCl)CCCl)C1=O`, the T/C (T/C endpoint: median survival time, dose: 0.19 mg/kg/injection, schedule: Q01DX009 (ip), vehicle: Klucel (hydroxypropylcellulose) (HPC), higher T/C = longer survival) is 107 % of control [survivor count not shown]; the T/C (T/C endpoint: median survival time, dose: 0.39 mg/kg/injection, schedule: Q01DX009 (ip), vehicle: Klucel (hydroxypropylcellulose) (HPC), higher T/C = longer survival) is 165 % of control [survivor count not shown]; the T/C (T/C endpoint: median survival time, dose: 0.78 mg/kg/injection, schedule: Q01DX009 (ip), vehicle: Klucel (hydroxypropylcellulose) (HPC), higher T/C = longer survival) was 89 [survivor count not shown] and 114 % of control [survivor count not shown]; the T/C (T/C endpoint: median survival time, dose: 1.56 mg/kg/injection, schedule: Q01DX009 (ip), vehicle: Klucel (hydroxypropylcellulose) (HPC), higher T/C = longer survival) was 93 [survivor count not shown] and 140 % of control [survivor count not shown]; the T/C (T/C endpoint: median survival time, dose: 3.12 mg/kg/injection, schedule: Q01DX009 (ip), vehicle: Klucel (hydroxypropylcellulose) (HPC), higher T/C = longer survival) is 102 [survivor count not shown] and 180 % of control [survivor count not shown].

Turning to `O=C(O)CN(CCCl)CCCl`, the T/C is 54 % of control [survivor count not shown] (T/C endpoint: mean tumor weight, dose: 1.0 mg/kg/injection, schedule: Q01DX011 (ip), vehicle: saline, evaluation day not shown, higher T/C = larger tumour); 53 % of control [survivor count not shown] (T/C endpoint: mean tumor weight, dose: 2.0 mg/kg/injection, schedule: Q01DX011 (ip), vehicle: saline, evaluation day not shown, higher T/C = larger tumour); 28 % of control [survivor count not shown] (T/C endpoint: mean tumor weight, dose: 4.0 mg/kg/injection, schedule: Q01DX011 (ip), vehicle: saline, evaluation day not shown, higher T/C = larger tumour).

With `ClCCN(CCCl)Cc1nc2ccc(Cl)cc2[nH]1`, the T/C reads like this: (T/C endpoint: mean tumor weight, dose: 1.5 mg/kg/injection, schedule: Q01DX011 (ip), vehicle: other, evaluation day not shown, higher T/C = larger tumour) 106 % of control [survivor count not shown]; under setting [1], 85 % of control [survivor count not shown]; under setting [2], 77 % of control [survivor count not shown].

Values taken from PubChem BioAssay AID270 (DTP/NCI, 2004).
